Results from patent US9820488B2, “Compounds for the control of endoparasites” (Elanco Tiergesundheit AG, priority 2013, dated 2017).
Some results were stated once for a whole list of compounds, not compound by compound.

Key:
T. colubriformis (Tc) = experiment: Gastro-Intestinal Worms in Gerbil (T. colubriformis); type: in vivo; settings: gerbils; at least at 10 mg/kg p.o.; 3 days after treatment
H. contortus (Hc) = experiment: Gastro-Intestinal Worms in Gerbil (H. contortus); type: in vivo; settings: gerbils; at least at 10 mg/kg p.o.; 3 days after treatment
nematode eggs = experiment: Gastro-Intestinal Larval Development Assay; type: cell-based; settings: at 10 ppm; 6 days at 25° C. and 60% relative humidity
[1] = tested on: Dirofilaria immitis microfilariae; experiment: Dirofilaria immitis Microfilaria Assay; type: cell-based; settings: at 10 ppm; 48 hours at 25° C. and 60% RH

| Structure (SMILES) | efficacy against Tc (percentage reduction in worm numbers vs placebo, Abbot's formula) (T. colubriformis (Tc)) | efficacy against Hc (percentage reduction in worm numbers vs placebo, Abbot's formula) (H. contortus (Hc)) | efficacy (percent reduced egg hatch, reduced development of L3, or paralysis & death of larvae) (nematode eggs) | efficacy (percent reduced motility of microfilariae) [1] |
| --- | --- | --- | --- | --- |
| O=C(c1cc(N2CCN(c3ccc(C(F)(F)F)cc3)CC2)ncn1)N1CCC(Nc2ccc([N+](=O)[O-])c(C(F)(F)F)c2)CC1 [Compound 43] | above 80% | above 80% | ≥ 60% | above 50% |
| O=C(c1ccnc(N2CCN(c3ccc(C(F)(F)F)cc3)CC2)c1)N1CCC(Nc2ccc([N+](=O)[O-])c(C(F)(F)F)c2)CC1 [Compound 44] | above 80% | above 80% | ≥ 60% | above 50% |
| N#Cc1ccc(NC2CCN(C(=O)c3ccnc(N4CCN(c5ccc(C(F)(F)F)cn5)CC4)c3)CC2)c(C(F)(F)F)c1 [Compound 46] |  |  | ≥ 60% | above 50% |
